Data from patent US4587233A, “Use of Arg-Phe-amide derivatives” (Board of Trustees of the Leland Stanford Junior University, priority 1983, dated 1986).
Part of at least one peptide drawing is inferred or uncertain, most often the ends. No end group written: not given here.

Tested on: Blood Pressure of Anesthetized Rats
Experiment: Blood pressure bioassay in urethane-anesthetized rats, peptides injected intravenously
Format: in vivo, male Sprague-Dawley rats
Set-up: key to Duration of blood pressure effect: +: short-lasting blood pressure elevation at all doses; ++: short-lasting blood pressure elevation at low doses; +++: long-lasting elevation at low doses
Conditions: i.v.; for Maximal increase in blood pressure mm Hg diastolic / Maximal increase in blood pressure mm Hg systolic: over the dose-range tested (nmol/kg)
Protocol: Bioassays were conducted on male Sprague-Dawley rats, weighing 250-450 g, and anesthetized by an intraperitoneal injection of a 25 percent urethane solution (1.25 g/kg). The left femoral artery was cannulated with PE 50 polyethylene tubing for monitoring of blood pressure with a pressure transducer RP-1500 (Narco Biosystems). Injections of peptides or drugs were made via a PE 10 tubing into the left femoral vein. Respiration was measured by an impedance method by which the respiratory movements of the chest are registered. The method gives indirect information on respiration amplitude. Heart and respiration frequency were obtained by using biotachometer couplers which measure mean frequencies. Body temperature was measured in the rectum with a thermistor (Yellow Springs Instruments) and maintained between 36.5° and 37.5° C. Peptides or drugs were dissolved in sterile H2 O and the volumes injected intravenously were usually 0.1 ml and never exceeded 0.2 ml.

Substance | Duration of blood pressure effect | Maximal increase in blood pressure mm Hg diastolic [mm Hg] | Maximal increase in blood pressure mm Hg systolic [mm Hg]
YGGFMRF-NH2 [YGGFMRF--NH2, Tyr-Gly-Gly-Phe-Met-Arg-Phe-NH2] | + | 45 | 50
YGGFMRF [YGGFMRF--OH, Tyr-Gly-Gly-Phe-Met-Arg-Phe] | + | 30 | 35
